From patent publication US20230265432A1, “METHODS AND COMPOSITIONS FOR TREATING ACUTE MYELOID LEUKEMIA” (Sanford Burnham Prebys Medical Discovery Institute, priority 2021, published 2023)
No constants are given. Whether binding was seen depends on the method and setting. In cells and extracts the contact can be indirect. Some binding calls cover weakened binding; strength is not graded here.

By UniProt entry, the sequences of proteins in these tests, tags left out. Where a name states a change or a piece, a line headed by the entry shows the natural chain unless it says otherwise. Chains listed by the source or under a name are the forms on record and can include a tag or linker. Residues count along the entry.
UniProt Q09028: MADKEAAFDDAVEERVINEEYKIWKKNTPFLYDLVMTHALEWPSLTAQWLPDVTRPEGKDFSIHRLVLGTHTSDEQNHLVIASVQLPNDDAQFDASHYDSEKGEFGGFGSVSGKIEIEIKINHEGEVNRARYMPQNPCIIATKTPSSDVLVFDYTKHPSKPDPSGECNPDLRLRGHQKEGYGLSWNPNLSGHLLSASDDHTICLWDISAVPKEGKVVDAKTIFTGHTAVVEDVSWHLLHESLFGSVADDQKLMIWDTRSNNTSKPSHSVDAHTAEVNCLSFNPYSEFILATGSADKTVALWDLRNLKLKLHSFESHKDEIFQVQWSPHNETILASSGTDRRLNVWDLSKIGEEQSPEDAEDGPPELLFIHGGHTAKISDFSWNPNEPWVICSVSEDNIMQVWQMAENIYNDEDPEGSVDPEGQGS
endogenous retinoblastoma binding protein 4 (RBBP4): residues 2-425 of Q09028
UniProt Q99942: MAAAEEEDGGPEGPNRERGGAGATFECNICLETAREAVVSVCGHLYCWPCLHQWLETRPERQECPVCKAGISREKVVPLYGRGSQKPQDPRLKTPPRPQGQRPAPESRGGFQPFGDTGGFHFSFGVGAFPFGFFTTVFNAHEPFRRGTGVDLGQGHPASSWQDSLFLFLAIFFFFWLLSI
Flag-tagged RNF5 catalytically inactive RING domain mutant (RM) (Q99942, form named): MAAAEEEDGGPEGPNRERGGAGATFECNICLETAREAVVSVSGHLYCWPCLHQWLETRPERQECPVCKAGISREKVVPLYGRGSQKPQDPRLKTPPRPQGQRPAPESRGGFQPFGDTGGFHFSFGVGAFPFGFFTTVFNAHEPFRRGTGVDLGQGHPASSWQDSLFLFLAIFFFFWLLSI

Assays:
[1] = molecular target: endogenous retinoblastoma binding protein 4 (RBBP4) (human) (UniProt Q09028); test: co-immunoprecipitation (IP: Flag) and Western blot for endogenous RBBP4, HEK293T, MG132
[2] = molecular target: endogenous retinoblastoma binding protein 4 (RBBP4) (human) (UniProt Q09028); test: co-immunoprecipitation, HEK293T cells expressing Flag-tagged RNF5 constructs, Western blot (FIG. 6B)
[3] = molecular target: endogenous retinoblastoma binding protein 4 (RBBP4) (human) (UniProt Q09028); test: co-immunoprecipitation (IP: Flag) and Western blot for endogenous RBBP4, MOLM-13 with doxycycline-inducible Flag-RNF5, MG132
[4] = molecular target: endogenous retinoblastoma binding protein 4 (RBBP4) (human) (UniProt Q09028); test: co-immunoprecipitation, MOLM-13 cells with doxycycline-inducible Flag-tagged RNF5, Western blot (FIG. 6D)
[5] = molecular target: endogenous retinoblastoma binding protein 4 (RBBP4) (human) (UniProt Q09028); test: anti-Flag immunoprecipitation of Flag-RNF5-expressing versus control MOLM-13 cells, LC-MS/MS
[6] = molecular target: endogenous retinoblastoma binding protein 4 (RBBP4) (human) (UniProt Q09028); test: anti-Flag immunoprecipitation from MOLM-13 cells with inducible Flag-tagged RNF5, LC-MS/MS (FIG. 5F)
[7] = molecular target: Flag-tagged full-length RNF5 (WT) (UniProt Q99942); test: co-immunoprecipitation (IP: Myc) and Western blot for Flag, HEK293T, MG132
[8] = molecular target: Flag-tagged full-length RNF5 (WT) (UniProt Q99942); test: reciprocal co-immunoprecipitation, HEK293T cells co-expressing Myc-RBBP4 and Flag-tagged RNF5-WT, Western blot (FIG. 6C)

Measured: binding

Flag-tagged RNF5 catalytically inactive RING domain mutant (RM) (from UniProt Q99942 1-180) (enzyme)
binds: [1] | [2]

Flag-tagged full-length RNF5 (WT) (from UniProt Q99942 1-180) (enzyme)
not listed: [7] | [8]
binds: all other assays above

Myc-tagged RBBP4 (from UniProt Q09028 1-425)
binds: [7] | [8]
